# Reference: PubChem BioAssay AID1347075 (National Center for Advancing Translational Sciences (NCATS), 2019)
# About 5,500 (1.4%) of roughly 400,000 compounds were called active. The inconclusive results got no clear call from the source; some entries with a clear call stand among them for comparison. The call rests on the fitted dose curve; in most records, active means well fitted cell-killing curve with a large enough effect; inconclusive means small, poorly fitted or top-dose-only effect, or effect the other way; inactive means flat fitted curve, though single readings scatter. Potencies beside an inconclusive call are fits to weak or partial responses and may not hold up.
# Experiment: qHTS assay for MDR1-selective chemotherapeutics: Primary screen using the parental adenocarcinoma cell KB-3-1; further: nearly all actives have a fitted effect of over 60% in size
# Conditions: KB-3-1 viability, CellTiter-Glo ATP luminescence, 72 h; activity change, negative = cytotoxic: at 46.1 µM (top of the series)
# In short: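 KB-3-1 cells, DMEM (no phenol red) + 10% FBS; compound by pin transfer, 72 h, 37 °C. Readout: CellTiter-Glo luminescence after 10 min. Data normalized, curve-fitted.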
# On the % scale 0 is the no-effect control and ±100 the full control effect; potency means the concentration at half of the fitted maximal effect.
Compound,"activity change, negative = cytotoxic",Potency
CC1CCN(CCCCOc2ccccc2[N+](=O)[O-])CC1,inactive: -8.41%,
CCC(C(=O)Nc1cc(F)ccc1F)n1nc(-c2cc(C)ccc2C)ccc1=O (configuration not stated),,"inconclusive: 23.1 µM [cytotoxic, partial curve, poor fit]"
CCN1CCN(C(C(=O)NC2CCCCC2)c2ccc(Cl)cc2)CC1 (configuration not stated),inactive: -13.8%,
COc1cc(OC)c(OC)cc1/C=N/NC(=S)NCCN1CCOCC1,inactive: -1%,
CC(C)(CC(=O)O)CC(=O)N1CCN(c2nc3cc(Cl)ccc3s2)CC1,,"inconclusive: 0.0065 µM [rising, full curve]"
Oc1c(Cl)cc(Cl)c(Cl)c1Cc1c(O)c(Cl)cc(Cl)c1Cl,,"inconclusive: 20.6 µM [cytotoxic, single point]"
O=C(Nc1ccccc1)C1CC(=O)N(c2ccc3c4c(cccc24)CC3)C1 (configuration not stated),,"inconclusive: 25.9 µM [rising, single point]"
COCC(=O)OC/C(O)=C(\C#N)c1nc2ccccc2[nH]1,,"inconclusive: 29.1 µM [cytotoxic, single point]"
CC12CN3CC(C)(CN(C1)C3c1ccc3ccccc3c1O)C2=O (configuration not stated),,"inconclusive: 12.6 µM [rising, single point]"
COc1ccc(C2=NN(CN3C(=O)C(=O)c4ccccc43)C(c3cccc([N+](=O)[O-])c3)C2)cc1 (configuration not stated),,"inconclusive: 3.26 µM [cytotoxic, partial curve, poor fit]"
COc1ccc(N2C(c3cc(OC)cc(OC)c3)=Cc3ccccc3C2CC(C)=O)cc1 (configuration not stated),,active: 23.1 µM
CC(=O)/C(C#N)=C1\NC(=O)C(Cc2cc(Cl)ccc2Cl)S1 (configuration not stated),,active: 14.6 µM
COc1ccc(-c2c3c(=O)n(C)c(=O)n(C)c3cn2-c2cc(OC)ccc2OC)cc1,,"inconclusive: 29.1 µM [cytotoxic, single point]"
O=C(Nc1nc2ccccc2[nH]1)c1ccc(OC(F)F)cc1,,"inconclusive: 20.6 µM [cytotoxic, single point]"
CCCn1c(NC(=O)c2cccc(C)c2C)nc2ccccc21,,"inconclusive: 20.6 µM [cytotoxic, single point]"
Cc1ccc(S(=O)(=O)n2cccc2/C=C/[N+](=O)[O-])cc1,,"inconclusive: 25.9 µM [cytotoxic, single point]"
Cc1ccc(-n2c(SCC3CCCCO3)nnc2-c2ccco2)cc1 (configuration not stated),,"inconclusive: 16.4 µM [cytotoxic, single point]"
CC1(C)Cc2c(sc3c2c(=N)n(Cc2ccco2)c(=O)n3Cc2ccc(F)cc2)CO1,,"inconclusive: 20.6 µM [cytotoxic, single point]"
Cc1cc(N=Nc2ccc(Cl)cc2)cc(CN2CCOCC2)c1O,,"inconclusive: 16.4 µM [cytotoxic, partial curve, poor fit]"
CC(N)c1csc(NC(=O)c2cc(C(C)(C)C)nn2Cc2ccccc2)n1 (configuration not stated),,"inconclusive: 29.1 µM [cytotoxic, single point]"
O=C(Oc1cc(=O)oc2ccccc12)c1ccccc1,,active: 5.17 µM

# Taken from above.
# `COc1ccc(C2=NN(CN3C(=O)C(=O)c4ccccc43)C(c3cccc([N+](=O)[O-])c3)C2)cc1` (configuration not stated) – Potency: inconclusive: 3.26 µM [cytotoxic, partial curve, poor fit]
# `O=C(Nc1nc2ccccc2[nH]1)c1ccc(OC(F)F)cc1` – Potency: inconclusive: 20.6 µM [cytotoxic, single point]

# The results go on:

Compound,"activity change, negative = cytotoxic",Potency
CCOC(=O)/C(=C/Nc1ccc(F)cc1)[N+](=O)[O-],inconclusive: -45.7% [cytotoxic],
Cc1[nH]n(-c2ccc(Cl)cc2)c(=O)c1/C=N/c1nnc(-c2ccccc2)s1,,"inconclusive: 16.4 µM [cytotoxic, single point]"
O=C(Nc1ccc(N2CCN(C(=O)c3ccco3)CC2)c(Cl)c1)c1c(F)c(F)c(F)c(F)c1F,,"inconclusive: 18.4 µM [cytotoxic, single point]"
CCCc1cc(-c2ccc(O)c(OCC)c2)c(C#N)c(N)n1,,"inconclusive: 29.1 µM [cytotoxic, single point]"
Cc1ccc2c(c1)cc(C(=O)NCc1ccccc1)n2C,,"inconclusive: 6.51 µM [cytotoxic, partial curve]"
CC(C)c1ccccc1NC(=O)c1ccccc1NC(=O)C1CCCCC1,,"inconclusive: 14.6 µM [cytotoxic, single point]"
CCCNC(=O)Cn1nc(-c2ccc(F)cc2)c2cnc3ccc(F)cc3c21,inactive: -0.778%,
Cc1nn(Cc2ccccc2)c(Cl)c1/C=C/C(=O)OC(C(=O)NC(N)=O)C(C)C (configuration not stated),inactive: 1.93%,
CCN(CC(=O)Nc1c(F)cccc1F)C(=O)c1cccc(S(=O)(=O)N2CCCc3ccccc32)c1,,"inconclusive: 29.1 µM [cytotoxic, single point]"
Cc1ccc(N(CC(=O)Nc2ccccc2-c2ccccc2)S(=O)(=O)c2ccccc2)cc1,inactive: -9.07%,
Cc1ccc(C(=O)Oc2ccc(-c3nnco3)cc2)o1,inactive: 13.8%,
COc1ccc(NC(=O)c2ccc(CN3CCN(c4ccccc4)CC3)cc2)cc1OC,,"inconclusive: 29.1 µM [cytotoxic, single point]"
O=C1[C@@H]2Cc3c([nH]c4ccccc34)C(c3ccc([N+](=O)[O-])cc3)N2C(=O)CN1C1CC1 (some centres not stated),,"inconclusive: 5.8 µM [cytotoxic, full curve]"
COc1cc(C=c2c3ccccc3n3c2cc(-c2ccccc2)[n+]3C)cc(OC)c1OC,,"inconclusive: 11.6 µM [cytotoxic, partial curve]"
S=C(NCc1ccccc1)NCC1COc2ccccc2O1 (configuration not stated),,"inconclusive: 16.4 µM [cytotoxic, partial curve, poor fit]"
COC(=O)c1c(NC(=O)c2cccc([N+](=O)[O-])c2)sc(C(N)=O)c1C,,"inconclusive: 29.1 µM [rising, single point]"
COc1cccc(S(=O)(=O)Nc2ccc3c(c2)[C@@H]2C[C@H](CC(=O)NCCc4ccccc4)O[C@H](CO)[C@@H]2O3)c1,,"inconclusive: 0.0184 µM [rising, full curve]"
CN1CCN(c2nc3ccccc3nc2C(C#N)S(=O)(=O)c2ccccc2)CC1 (configuration not stated),,"inconclusive: 18.4 µM [cytotoxic, single point]"
Cc1ccc(-c2nc3ccccc3c(=O)n2O)cc1,inactive: 5.17%,
O=C1c2ccccc2NC(c2cn[nH]c2-c2ccc(Cl)cc2)N1O (configuration not stated),,"inconclusive: 2.59 µM [cytotoxic, partial curve, poor fit]"
Cn1cc(Br)c(C(=O)NN2C(=O)C3C4C=CC(C5CC45)C3C2=O)n1 (configuration not stated),inactive: -4.6%,
